{"source": "PubChem BioAssay AID504764 – Drosophila RNAi Screening Center – 2011", "purpose": "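Genes whose knock-down alters Notch-dependent transcription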 (primary screen)", "system": "Drosophila Kc167 cells", "reagent": "long dsRNA against Drosophila genes", "timing": "about 5 days (4 days dsRNA, then 24 h after transfection)", "challenge": "transfection of constitutively active membrane-tethered Notch lacking the extracellular domain, read 24 h later", "read-out": "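Light from a Notch-responsive E(spl)m3 luciferase reporter under active Notch, with control-promoter and no-Notch reporter wells to normalise; raw counts from paired wells a and b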", "reading the numbers": "induced reporter light, run 1, well a and induced reporter light, run 1, well b: higher = more light from the Notch target reporter with active Notch; control promoter light, run 1, well a and control promoter light, run 1, well b: higher = more light from the viral control promoter (cell number, transfection, viability); uninduced reporter light, run 1, well a: higher = more light from the Notch target reporter without active Notch", "call rule": "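Hit if the duplicate-averaged log2 ratio of induced to control-promoter light gives a plate-wise z beyond ±2, or induced to uninduced beyond ±1.8; weak-control or discordant-duplicate wells dropped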", "meaning of the calls": "active = modifier hit (raised or lowered Notch signal); inactive = not a hit", "note": "In all, the deposit lists about 22,000 reagents; shown is a random part of those with a known target gene and a result. Over the whole deposit, 403 (1.9%) are marked active. 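Unnormalised raw counts per well; ratio z-scores behind the hit calls and whether each hit raises or lowers signal are not deposited.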 A number with no mark means an inactive call. Reagents against one gene are numbered here. Reagent sequences are not shown. Not stated in the record: the amount of reagent."}
{"Target gene":"CSN1b","dsRNA no.":1,"induced reporter light, run 1, well a":72230,"induced reporter light, run 1, well b":83895,"control promoter light, run 1, well a":35900,"control promoter light, run 1, well b":48685,"uninduced reporter light, run 1, well a":7125}
{"Target gene":"CG17141","dsRNA no.":1,"induced reporter light, run 1, well a":1.93e5,"induced reporter light, run 1, well b":1.87e5,"control promoter light, run 1, well a":1.97e5,"control promoter light, run 1, well b":1.77e5,"uninduced reporter light, run 1, well a":12588}
{"Target gene":"Sbf","dsRNA no.":1,"induced reporter light, run 1, well a":1.03e5,"induced reporter light, run 1, well b":1.17e5,"control promoter light, run 1, well a":68065,"control promoter light, run 1, well b":75625,"uninduced reporter light, run 1, well a":7665}
{"Target gene":"CG8206","dsRNA no.":1,"induced reporter light, run 1, well a":1.44e5,"induced reporter light, run 1, well b":1.30e5,"control promoter light, run 1, well a":2.06e5,"control promoter light, run 1, well b":1.31e5,"uninduced reporter light, run 1, well a":10495}
{"Target gene":"CG8001","dsRNA no.":1,"induced reporter light, run 1, well a":89975,"induced reporter light, run 1, well b":92845,"control promoter light, run 1, well a":1.64e5,"control promoter light, run 1, well b":1.43e5,"uninduced reporter light, run 1, well a":6860}
{"Target gene":"cnn","dsRNA no.":1,"induced reporter light, run 1, well a":2.07e5,"induced reporter light, run 1, well b":2.12e5,"control promoter light, run 1, well a":2.77e5,"control promoter light, run 1, well b":2.42e5,"uninduced reporter light, run 1, well a":18095}
{"Target gene":"cnn","dsRNA no.":2,"induced reporter light, run 1, well a":95720,"induced reporter light, run 1, well b":1.05e5,"control promoter light, run 1, well a":1.36e5,"control promoter light, run 1, well b":1.47e5,"uninduced reporter light, run 1, well a":9120}
{"Target gene":"CG9444","dsRNA no.":1,"induced reporter light, run 1, well a":1.04e5,"induced reporter light, run 1, well b":91270,"control promoter light, run 1, well a":79155,"control promoter light, run 1, well b":55870,"uninduced reporter light, run 1, well a":6588}
{"Target gene":"CG3581","dsRNA no.":1,"induced reporter light, run 1, well a":1.72e5,"induced reporter light, run 1, well b":1.46e5,"control promoter light, run 1, well a":1.80e5,"control promoter light, run 1, well b":1.47e5,"uninduced reporter light, run 1, well a":12550}
{"Target gene":"CG14631","dsRNA no.":1,"induced reporter light, run 1, well a":74170,"induced reporter light, run 1, well b":80375,"control promoter light, run 1, well a":1.13e5,"control promoter light, run 1, well b":1.24e5,"uninduced reporter light, run 1, well a":6360}
{"Target gene":"CG14631","dsRNA no.":2,"induced reporter light, run 1, well a":76250,"induced reporter light, run 1, well b":75495,"control promoter light, run 1, well a":86625,"control promoter light, run 1, well b":94350,"uninduced reporter light, run 1, well a":5440}
{"Target gene":"Shab","dsRNA no.":1,"induced reporter light, run 1, well a":1.58e5,"induced reporter light, run 1, well b":1.72e5,"control promoter light, run 1, well a":1.73e5,"control promoter light, run 1, well b":1.32e5,"uninduced reporter light, run 1, well a":14438}
{"Target gene":"Shab","dsRNA no.":2,"induced reporter light, run 1, well a":1.24e5,"induced reporter light, run 1, well b":1.06e5,"control promoter light, run 1, well a":2.14e5,"control promoter light, run 1, well b":1.94e5,"uninduced reporter light, run 1, well a":10325}
{"Target gene":"Shab","dsRNA no.":3,"induced reporter light, run 1, well a":94465,"induced reporter light, run 1, well b":88840,"control promoter light, run 1, well a":1.74e5,"control promoter light, run 1, well b":1.58e5,"uninduced reporter light, run 1, well a":7680}
{"Target gene":"Tudor-SN","dsRNA no.":1,"induced reporter light, run 1, well a":53910,"induced reporter light, run 1, well b":53380,"control promoter light, run 1, well a":1.22e5,"control promoter light, run 1, well b":1.45e5,"uninduced reporter light, run 1, well a":4092}
{"Target gene":"CG17292","dsRNA no.":1,"induced reporter light, run 1, well a":1.18e5,"induced reporter light, run 1, well b":1.23e5,"control promoter light, run 1, well a":1.31e5,"control promoter light, run 1, well b":1.29e5,"uninduced reporter light, run 1, well a":8210}
{"Target gene":"eEF1gamma","dsRNA no.":1,"induced reporter light, run 1, well a":7565,"induced reporter light, run 1, well b":5745,"control promoter light, run 1, well a":12940,"control promoter light, run 1, well b":13040,"uninduced reporter light, run 1, well a":585}
{"Target gene":"RabGGTb","dsRNA no.":1,"induced reporter light, run 1, well a":1.80e5,"induced reporter light, run 1, well b":1.79e5,"control promoter light, run 1, well a":1.80e5,"control promoter light, run 1, well b":1.87e5,"uninduced reporter light, run 1, well a":18382}
